Laboratory results from the supplement of paper PMC7238544.
Counter-ions that a name gives are not always drawn. ± gives the standard deviation of the averaged measurements. The list shows a part of the results. The data scatter; read single values as rough.

Columns and labels:
hAMSC donor 1 [1] = test: transgenic luciferase activity (RLU/mg protein) fold change vs vehicle control (ratio); higher = more transgene expression
hAMSC donor 2 [2] = test: as above
hAMSC donor 1 [3] = test: transfection efficiency (EGFP+ cells / Hoechst count) fold change vs vehicle control (ratio); higher = enhanced transfection
hAMSC donor 2 [4] = test: as above
hAMSC donor 1 [5] = test: Hoechst total cell count ratio vs vehicle control; hAMSC are human adipose-derived mesenchymal stem cells given an EGFP-luciferase plasmid by lipofection; higher = more cells (less toxicity)
hAMSC donor 2 [6] = test: as above
[7] = priming compound concentration 0.2 µM
[8] = priming compound concentration 1.7 µM
[9] = priming compound concentration 13 µM

Row | SMILES | transgenic luciferase activity (hAMSC donor 1 [1]; [7]) | transgenic luciferase activity (hAMSC donor 1 [1]; [8]) | transgenic luciferase activity (hAMSC donor 1 [1]; [9]) | transgenic luciferase activity (hAMSC donor 2 [2]; [7]) | transgenic luciferase activity (hAMSC donor 2 [2]; [8]) | transgenic luciferase activity (hAMSC donor 2 [2]; [9]) | transfection efficiency (hAMSC donor 1 [3]; [7]) | transfection efficiency (hAMSC donor 1 [3]; [8]) | transfection efficiency (hAMSC donor 1 [3]; [9]) | transfection efficiency (hAMSC donor 2 [4]; [7]) | transfection efficiency (hAMSC donor 2 [4]; [8]) | transfection efficiency (hAMSC donor 2 [4]; [9]) | Hoechst total cell count ratio (hAMSC donor 1 [5]; [7]) | Hoechst total cell count ratio (hAMSC donor 1 [5]; [8]) | Hoechst total cell count ratio (hAMSC donor 1 [5]; [9]) | Hoechst total cell count ratio (hAMSC donor 2 [6]; [7]) | Hoechst total cell count ratio (hAMSC donor 2 [6]; [8]) | Hoechst total cell count ratio (hAMSC donor 2 [6]; [9])
1 | O=c1n(CCCN2CCN(c3cccc(Cl)c3)CC2)nc2ccccn12 [Trazodone hydrochloride] | 0.617 ± 0.17 | 0.83 ± 0.41 | 1.02 ± 0.62 | 0.635 ± 0.07 | 1.01 ± 0.23 | 2.04 ± 0.17 | 1.2 ± 0.57 | 1.52 ± 0.75 | 1.09 ± 0.19 | 1.15 ± 0.28 | 1.11 ± 0.1 | 1.34 ± 0.037 | – | – | – | – | – | –
2 | Cc1onc(-c2ccccc2)c1-c1ccc(S(N)(=O)=O)cc1 [Valdecoxib] | 0.643 ± 0.34 | 0.911 ± 0.26 | 1 ± 0.52 | – | – | 1.2 ± 0.3 | 1.02 ± 0.21 | 1.43 ± 0.2 | 0.9832 ± 0.005 | 1.23 ± 0.36 | 1.11 ± 0.075 | 1.61 ± 0.39 | 1.4 ± 0.33 | 1.04 ± 0.11 | 0.976 ± 0.16 | 1.09 ± 0.38 | 0.885 ± 0.18 | 1.03 ± 0.06
3 | c1ccc2c(c1)CCCC2C1=NCCN1 (stereo not drawn) [Tetrahydrozoline hydrochloride] | 0.648 ± 0.26 | 0.716 ± 0.087 | 0.556 ± 0.027 | – | – | 1.06 ± 0.22 | 0.867 ± 0.16 | 0.903 ± 0.13 | 0.909 ± 0.21 | 1.18 ± 0.41 | 1.19 ± 0.25 | 1.27 ± 0.27 | 1.45 ± 0.17 | 1.21 ± 0.041 | 1.17 ± 0.057 | 1.17 ± 0.44 | 0.912 ± 0.041 | 1.21 ± 0.087
4 | C[C@]12C=CC(=O)C=C1CC[C@@H]1[C@@H]2[C@@H](O)C[C@@]2(C)[C@H]1CC[C@]2(O)C(=O)COC(=O)CCC(=O)O [Prednisolone sodium succinate] | 0.917 ± 0.12 | 5.41 ± 0.56 | – | 1.53 ± 0.14 | 2.73 ± 0.51 | 1.86 ± 1.1 | 0.998 ± 0.13 | 1.15 ± 0.17 | 0.982 ± 0.15 | 1.48 ± 0.32 | 1.7 ± 0.23 | 1.23 ± 0.34 | 1.45 ± 0.11 | 1.3 ± 0.073 | 1.32 ± 0.081 | 1.09 ± 0.052 | 1.14 ± 0.13 | 1.51 ± 0.13
5 | OCc1cc(C(O)CNCCCCCCOCCCCc2ccccc2)ccc1O (stereo not drawn) [Salmeterol] | 0.687 ± 0.4 | 0.641 ± 0.41 | 0.478 ± 0.088 | – | – | 1.11 ± 0.23 | 1.13 ± 0.035 | 0.857 ± 0.19 | 0.631 ± 0.13 | 1.02 ± 0.26 | 1.5 ± 0.13 | 0.956 ± 0.13 | 1.2 ± 0.21 | 1.15 ± 0.044 | 1.28 ± 0.12 | 1.23 ± 0.31 | 0.829 ± 0.046 | 1.44 ± 0.066
6 | COc1ccc2cc([C@H](C)C(=O)O)ccc2c1 [Naproxen sodium] | 0.558 ± 0.54 | 0.329 ± 0.2 | 1.1 ± 0.63 | – | – | 1.24 ± 0.37 | 0.965 ± 0.12 | 0.885 ± 0.12 | 1.1 ± 0.14 | 1.15 ± 0.26 | 1.39 ± 0.28 | 1.53 ± 0.14 | 1.21 ± 0.04 | 1.31 ± 0.12 | 1.13 ± 0.032 | 1.06 ± 0.18 | 0.612 ± 0.019 | 0.962 ± 0.1
7 | CC(=O)CCCCn1cnc2c1c(=O)n(C)c(=O)n2C [Lomifylline] | 0.718 ± 0.3 | 0.509 ± 0.34 | – | 0.931 ± 0.12 | 0.731 ± 0.071 | 0.65 ± 0.13 | 1.1 ± 0.16 | 1.61 ± 0.73 | 0.746 ± 0.23 | 1.02 ± 0.054 | 1.24 ± 0.1 | 1.17 ± 0.15 | 1.11 ± 0.098 | 1.04 ± 0.064 | 1.43 ± 0.098 | 1.3 ± 0.15 | 1.14 ± 0.14 | 1.24 ± 0.17
8 | Cc1occc(=O)c1O [Maltol] | 0.626 ± 0.045 | 0.978 ± 0.44 | 1.64 ± 2 | – | – | 1.14 ± 0.35 | 1.03 ± 0.099 | 1.22 ± 0.066 | 0.833 ± 0.12 | 1.25 ± 0.29 | 1.28 ± 0.2 | 1.29 ± 0.18 | 1.106 ± 0.0029 | 1.03 ± 0.061 | 1.12 ± 0.085 | 0.788 ± 0.077 | 0.823 ± 0.09 | 1.07 ± 0.19
9 | Cc1cn([C@H]2C=C[C@@H](CO)O2)c(=O)[nH]c1=O [Stavudine] | 0.598 ± 0.13 | 0.916 ± 0.28 | 0.489 ± 0.11 | – | – | 0.97 ± 0.18 | 1.17 ± 0.11 | 1.2 ± 0.23 | 0.84 ± 0.077 | 1.31 ± 0.17 | 1.63 ± 0.052 | 1.37 ± 0.25 | 1.54 ± 0.047 | 1.26 ± 0.13 | 1.26 ± 0.024 | 0.867 ± 0.033 | 0.758 ± 0.093 | 0.92 ± 0.16
10 | CCOC(=O)[C@@]1(CCCCCCOc2ccc(Cl)cc2)CO1 [Etomoxir] | 0.743 ± 0.31 | 0.615 ± 0.2 | 0.698 ± 0.21 | – | – | 0.946 ± 0.35 | 1.16 ± 0.25 | 0.906 ± 0.12 | 1.16 ± 0.17 | 1.61 ± 0.41 | 0.988 ± 0.16 | 1.35 ± 0.019 | 1.28 ± 0.35 | 1.21 ± 0.029 | 1.04 ± 0.12 | 0.813 ± 0.12 | 0.916 ± 0.12 | 1.35 ± 0.08
11 | OCCN1CCN(CCCN2c3ccccc3Sc3ccc(Cl)cc32)CC1 [Perphenazine] | 0.896 ± 0.23 | 0.907 ± 0.098 | 0.36 ± 0.02 | – | – | 1.13 ± 0.23 | 1.28 ± 0.075 | 1.12 ± 0.49 | 0.554 ± 0.021 | 1.25 ± 0.36 | 1.64 ± 0.08 | 1.08 ± 0.49 | 1.33 ± 0.18 | 1.22 ± 0.099 | 1.29 ± 0.033 | 0.98 ± 0.28 | 0.771 ± 0.043 | 1.35 ± 0.26
12 | CC(C)[N+](C)(CCOC(=O)C1c2ccccc2Oc2ccccc21)C(C)C [Propantheline bromide] | 0.533 ± 0.2 | 0.318 ± 0.045 | 0.833 ± 0.72 | – | – | 0.951 ± 0.16 | 0.965 ± 0.14 | 0.987 ± 0.057 | 1.09 ± 0.13 | 1.21 ± 0.35 | 1.12 ± 0.021 | 1.49 ± 0.055 | 1.24 ± 0.21 | 1.18 ± 0.041 | 1 ± 0.17 | 0.977 ± 0.27 | 0.975 ± 0.21 | 1.13 ± 0.12
13 | NS(=O)(=O)c1cc(C2(O)NC(=O)c3ccccc32)ccc1Cl (stereo not drawn) [Chlorthalidone] | 0.476 ± 0.15 | 0.832 ± 0.58 | 0.418 ± 0.32 | – | – | 1.21 ± 0.42 | 1.16 ± 0.29 | 1.07 ± 0.33 | 1.12 ± 0.26 | 1.27 ± 0.23 | 1.43 ± 0.39 | 1.03 ± 0.31 | 1.41 ± 0.088 | 1.33 ± 0.14 | 1.15 ± 0.11 | 0.961 ± 0.23 | 0.841 ± 0.23 | 1.34 ± 0.14
14 | CCN(CC)C(=S)SSC(=S)N(CC)CC [Disulfiram] | 0.653 ± 0.048 | 0.47 ± 0.15 | 2.03 ± 0.87 | 1.22 ± 0.6 | 0.913 ± 0.076 | 0.0343 ± 0.026 | 1.12 ± 0.42 | 0.928 ± 0.28 | – | 1.18 ± 0.26 | 1.33 ± 0.089 | 1.27 ± 0.61 | 1.11 ± 0.12 | 1.24 ± 0.068 | 0.262 ± 0.027 | 0.894 ± 0.26 | 0.934 ± 0.17 | 0.0947 ± 0.07

Look-ups from the results shown.
transgenic luciferase activity (hAMSC donor 2 [2]; [7]), `CC(=O)CCCCn1cnc2c1c(=O)n(C)c(=O)n2C` [Lomifylline] is entered as 0.931 ± 0.12
transfection efficiency (hAMSC donor 1 [3]; [9]), `COc1ccc2cc([C@H](C)C(=O)O)ccc2c1` [Naproxen sodium] is entered as 1.1 ± 0.14
